# Source: PubChem BioAssay AID493014 (National Center for Advancing Translational Sciences (NCATS), 2011)
# Several values for one entry are separate records, joined by “and”; a condition that tells them apart may be missing. Equal values may be shown once. The list shows a part of the results. The main result of the screen is listed elsewhere. These columns were measured beside it and carry no call. Compounds called inactive in the main read-out are mostly missing here. Potencies come from curve fits of mixed quality, noted in brackets.
# Test: qHTS Assay to Find Inhibitors of Chronic Active B-Cell Receptor Signaling
# Details: ABC-DLBCL IkBa-CBG/CBR reporter, luminescence ratio (green luciferase fused to IkBa over red control in TMD8 lymphoma cells), 4 h
# In short: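 Compounds up to 46 uM were incubated four hours with TMD8 cells whose green CBG68 luciferase is fused to IkappaBalpha; red CBR luminescence normalised the signal, and concentration-effect curves were fitted to fusion, red and ratio data.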
# [1] = measured here: CBR red luminescence, cell number
# [2] = measured here: IkBa-CBG green luminescence
SMILES,AC50 [1],AC50 [2]
C/C(=N\Nc1ccc(S(N)(=O)=O)cc1[N+](=O)[O-])c1ccco1,"35.5 µM [rising, single point]",
O=C(CSc1nnnn1-c1ccccc1)Nc1nsc(-c2ccc(Cl)cc2)n1,,"5.17 µM [falling, partial curve, poor fit]"
Oc1c(Br)cc(Br)cc1CNc1nccs1,"5.01 µM [rising, full curve, poor fit]",
CC1(C)Oc2ccccc2OC1(O)c1ccc2ccccc2n1 (stereo not drawn),"8.2 µM [rising, partial curve, poor fit]",
Cc1nnc2sc(SCc3ccc(Cl)cc3)nn2c1=O,"0.082 µM [falling, full curve]",
CCNS(=O)(=O)c1c(C)cc(C)c(N(C)S(=O)(=O)c2ccccc2)c1C,"28.2 µM [rising, single point]",
N#CC1=C(N)Oc2c(ccc3cccnc23)C1c1cccnc1 (stereo not drawn),"0.259 µM [falling, full curve, poor fit]",
Cc1ccc(-n2ncc3c(=O)n(-c4ccc(C)c(C)c4)c(-c4ccco4)nc32)cc1,"3.66 µM [falling, full curve]","3.66 µM [rising, full curve]"
O=C(O)c1c(-c2ccccc2)c2oc3ccccc3c2[nH]c1=O,"35.5 µM [falling, single point]",
COC(=O)c1scc(-c2ccccc2)c1S(=O)(=O)Nc1ccccc1,"31.6 µM [falling, single point]",
Cc1ccc(NC(=O)c2ccc(Cl)c(S(=O)(=O)N3CCCCCC3)c2)nc1,"3.66 µM [falling, partial curve, poor fit]",
COc1ccc(NC(=O)CCN2C(=O)c3ccccc3C2=O)cc1,"15.8 µM [rising, single point]",
Cc1ccc(N2CC(NC(=O)/C=C\c3ccc4c(c3)OCO4)CC2=O)cc1C (stereo not drawn),"35.5 µM [falling, single point]",
Cc1ccc(NC(=O)Nc2ccc3c(c2)OCO3)nc1,"0.0891 µM [rising, full curve, poor fit]",
Cc1ccc(C(=O)CNc2cc(C)ccc2C)cc1,"25.1 µM [falling, single point]",
CCOc1ccc(NS(=O)(=O)c2ccc(C(=O)N(C)CC(=O)Nc3ccc(OC)cc3)cc2)cc1,"2.91 µM [falling, full curve]",
COc1cccc(C(=O)Nc2cccc3cccnc23)c1OC,"11.2 µM [rising, partial curve]",
O=C(COC(=O)Cc1ccc(S(=O)(=O)N2CCOCC2)s1)NCc1ccc(Cl)cc1,"20.6 µM [rising, single point]",
Cn1c(=O)n(C)c2cc(NS(C)(=O)=O)ccc21,"25.1 µM [rising, single point]",
CCc1nc(SCC(=O)c2ccccc2)c2ccccc2n1,"35.5 µM [falling, single point]",
CCn1cc(CNCc2cn(C)nc2-c2ccc(C3CCCCC3)cc2)cn1,"35.5 µM [falling, single point]",
COC(=O)c1c(NC(=O)CSc2nnc(C)c(=O)[nH]2)sc(C)c1C,"35.5 µM [falling, single point]",

# Structures listed so far that contain an aryl methoxy group (3):
SMILES,AC50 [1],AC50 [2]
COc1ccc(NC(=O)CCN2C(=O)c3ccccc3C2=O)cc1,"15.8 µM [rising, single point]",
CCOc1ccc(NS(=O)(=O)c2ccc(C(=O)N(C)CC(=O)Nc3ccc(OC)cc3)cc2)cc1,"2.91 µM [falling, full curve]",
COc1cccc(C(=O)Nc2cccc3cccnc23)c1OC,"11.2 µM [rising, partial curve]",

# (list continues)

SMILES,AC50 [1],AC50 [2]
CCC1CCCCN1C(=O)COC(=O)c1ccc(Br)o1 (stereo not drawn),"0.82 µM [rising, full curve, poor fit]",
COC(=O)c1ccc2nc(C(F)(F)F)[nH]c2c1,"35.5 µM [falling, single point]",
Oc1ccc(COCc2ccccc2)c2cccnc12,"35.5 µM [falling, single point] and 23.1 µM [falling, partial curve]","3.16 µM [falling, full curve]"
COc1ccc(Cl)cc1CN1CCOCC1,"28.2 µM [rising, single point]",
CC(C)N(CCc1ccncc1)C(=S)Nc1cccc(Cl)c1,"2 µM [rising, full curve, poor fit]",
COc1cccc(-c2cc3c(=O)n(-c4ccccc4)c(=S)[nH]c3s2)c1,"3.98 µM [rising, full curve, poor fit]",
Cc1ccc(S(=O)(=O)Nc2ccc3oc(=O)sc3c2)c(C)c1,"0.164 µM [falling, full curve, poor fit]",
COc1ccc(NC(=O)c2ccc([N+](=O)[O-])s2)c([N+](=O)[O-])c1,"1 µM [rising, full curve, poor fit]",
N#Cc1c(Cl)nc(SCc2ccccc2)nc1-c1ccccc1,"11.2 µM [falling, single point]",
CNC(=O)COc1ncnc2sccc12,"6.51 µM [rising, single point]",
O=C(Nc1cccc(/C=C/c2ccccn2)c1)c1ccc(-n2cncn2)c([N+](=O)[O-])c1,"2.06 µM [falling, single point]",
O=C(COC(=O)C1CC2C=CC1C2)NCc1ccccc1Cl (stereo not drawn),"13 µM [falling, partial curve, poor fit]",
COc1ccc(CN2CCCC(CO)(Cc3ccc(F)cc3)C2)cc1C (stereo not drawn),"35.5 µM [falling, single point]",
Cc1onc(-c2ccccc2)c1C(=O)N/N=C/c1cccs1,"5.62 µM [rising, single point]",
CCN(CC(=O)Nc1ccc(C)c(S(=O)(=O)N(C)C)c1)Cc1ccccc1,"11.2 µM [rising, partial curve, poor fit]",
Cc1ccc(-n2cnc(N)c2C(=O)c2cccc([N+](=O)[O-])c2)cc1,"35.5 µM [falling, single point]",
COc1ccc(NC(=O)c2oc3ccc(S(=O)(=O)N4CCC5(CC4)OCCO5)cc3c2C)cc1,"18.4 µM [falling, single point]",
Cc1cc(C)cc(C(=O)OCC(=O)Nc2cccc(S(=O)(=O)NC3=NCCCCC3)c2)c1,"16.4 µM [falling, single point]",
CC(=O)c1ccc(NC(=S)N2CCN(CCN3C(=O)c4cccc5cccc(c45)C3=O)CC2)cc1,"2.06 µM [falling, partial curve]",
COc1ccccc1C(=O)NNC(=O)c1ccc(C)cc1,"11.2 µM [falling, partial curve]",
O=C(Nc1ccc2[nH]ncc2c1)c1ccccc1,"14.1 µM [falling, partial curve, poor fit]",
CCCCOC(=O)Nc1cccc(Cl)c1C,"29.1 µM [falling, single point]",

SMILES,AC50 [1],AC50 [2]
Cc1ccc2ccc(C(Nc3cccc(C(F)(F)F)c3)c3cccnc3)c(O)c2n1 (stereo not drawn),"14.1 µM [falling, single point]",
Cc1[nH]nc(S(=O)CC(=O)O)c1[N+](=O)[O-] (stereo not drawn),"11.2 µM [falling, partial curve]",
COC(=O)Cc1ccc(NC(=S)N2CCN(c3cccc(O)c3)CC2)cc1,"6.51 µM [falling, partial curve]",
O=[N+]([O-])c1cccc(-c2nc(-c3ccccc3)no2)c1,"1.78 µM [rising, partial curve, poor fit]",
Cn1c(=O)n(C)c2cc(S(=O)(=O)Nc3cc(Cl)ccc3O)ccc21,"17.8 µM [rising, partial curve, poor fit]",
O=C(Nc1nccs1)c1ccc(-c2ccc(Cl)cc2)o1,"10 µM [falling, partial curve, poor fit]",
O=C(NCc1cc(Br)cc(Br)c1OC(=O)c1ccccc1[N+](=O)[O-])c1ccccc1,"3.26 µM [falling, partial curve]",
O=C(O)/C=C\C(=O)Nc1ccccc1C#Cc1ccc(Br)cc1,"25.9 µM [falling, single point]",
O=C(Nc1ccc(Nc2ccccc2)cc1)c1cc([N+](=O)[O-])ccc1Cl,"10 µM [falling, partial curve]",
CCS(=O)(=O)Nc1ccc(C2=NN(C(=O)c3ccco3)C(c3ccco3)C2)cc1 (stereo not drawn),"9.2 µM [falling, partial curve, poor fit]",
NNc1nc2c(Cl)c(Cl)ccc2s1,"10.3 µM [falling, partial curve]",
COc1nc(NCc2ccco2)nc(N2CCC(C)CC2)n1,"10 µM [rising, partial curve]",
COc1ccc(C(=O)NCCc2ccccc2)cc1OC,"11.2 µM [falling, single point]",
Cc1ccc2cc(C)c3nnc(SCC(=O)c4cccs4)n3c2c1C,"18.4 µM [rising, partial curve, poor fit]",
COc1ccc(-n2cc(-c3ccccc3)c3c(N4CCN(CCO)CC4)ncnc32)cc1,"14.6 µM [falling, single point]",
O=C(NC(=S)Nc1cccc(O)c1)c1ccco1,"10 µM [falling, partial curve, poor fit]",
COC(=O)c1ccsc1NC(=O)CCS(=O)(=O)c1ccc(Cl)cc1,"29.1 µM [falling, single point]",
O=C(COc1ccc(/C=N/NC(=O)c2cccnc2)cc1)Nc1ccccc1,"20 µM [falling, partial curve]",
Cc1nc(N2N=C(c3ccc(Cl)cc3)CC2c2ccco2)sc1C(=O)N(C)C (stereo not drawn),,"10 µM [falling, partial curve, poor fit]"
O=C(Nc1ccc(Br)cc1)c1csc(-c2ccncc2)n1,"22.4 µM [falling, single point]",
CSc1nsc(N/N=C/c2ccc3c(c2)OCO3)c1C#N,"0.0891 µM [rising, full curve, poor fit]",
COc1cc(CNc2ccc3[nH]c(=O)[nH]c3c2)ccc1OCc1ccc(F)cc1Cl,"6.31 µM [falling, single point]",
